Reference: PubChem BioAssay AID540256 (National Center for Advancing Translational Sciences (NCATS), 2011)
The campaign covered roughly 300,000 compounds. About 3,700 (1.2%) were called active. This list was built around the results that the source calls inconclusive (neither active nor inactive); the mix of calls is not that of the screen. Calls follow the shape of the full dose curve; tested in HEK293 cells. Potencies beside an inconclusive call are fits to weak or partial responses and may not hold up.

Test: qHTS for Inhibitors of binding or entry into cells for Lassa Virus; also: nearly all actives have a fitted effect of over 50% in size
Details: Lassa virus pseudotype entry inhibition, cell reporter; activity change, negative = inhibition: at 37.9 µM (top of the series) unless noted
% is scaled to controls: 0 for no effect and ±100 for the full control effect; potency is read from the fitted curve at half-maximal effect.

SMILES | Potency | activity change, negative = inhibition
O=C(Nc1ccc(NC(=O)c2ccc3c(c2)OCCO3)cc1)c1ccccc1 | inconclusive: 35.5 µM [inhibitor, single point] | 
Cc1ccc(N2C(=O)C3N=NN(CC(=O)N4N=C(c5cccc6ccccc56)CC4c4ccccc4)C3C2=O)cc1 (centres undefined) | inconclusive: 0.146 µM [inhibitor, full curve, poor fit] | 
O=C(CSc1cccc[n+]1[O-])CSc1cccc[n+]1[O-] |  | inactive: -1.54% [at 46.1 µM]
Cc1cccc(Cn2ncc(Cl)c(Cl)c2=O)c1 | inconclusive: 29.1 µM [inhibitor, single point] | 
CCCCc1c(C)nc2c(OC)cccc2c1SCC(=O)O |  | inactive: 18.9% [at 46.1 µM]
CC(/C=N/Nc1nnc(C)c(=O)[nH]1)=C\c1ccccc1 | inconclusive: 23.1 µM [activator, single point] | 
COc1ccc2oc(C(F)(F)C(F)(F)F)cc(=O)c2c1 | inconclusive: 11.2 µM [activator, partial curve, poor fit] | 
Cc1ccc(S(=O)(=O)N/N=C2\C(=O)C3(C)CCC2C3(C)C)cc1 (centres undefined) | inconclusive: 15.8 µM [activator, single point] | 
COC(=O)C(CC(C)C)NC(=O)/C=C/c1ccccc1Cl (centres undefined) | inconclusive: 29.1 µM [activator, single point] | 
CCOC(=O)c1cc(NC(=O)COc2ccc([N+](=O)[O-])cc2)cc(C(=O)OCC)c1 | inconclusive: 5.01 µM [inhibitor, partial curve] | 
Cc1ccc(S(=O)(=O)N(C)CCCC(=O)Nc2cccc3ccccc23)cc1 | inconclusive: 14.1 µM [inhibitor, partial curve, poor fit] | 
CCc1ccc(-c2nc(CSCC(=O)N3CCN(c4ccccn4)CC3)c(C)o2)cc1 | inconclusive: 29.1 µM [inhibitor, single point] | 
CCC(=O)N(Cc1cc2cc(OC)ccc2[nH]c1=O)c1ccccc1C | inconclusive: 16.4 µM [inhibitor, single point] | 
CCOc1ccc(NC(=O)CN2C(=O)S/C(=C/c3cccn3C)C2=O)cc1 | inconclusive: 29.1 µM [inhibitor, single point] | 
Cc1cc(C)n2ncc(C(=O)NCc3cccnc3)c2n1 |  | inactive: -2.93%
Cc1cc(NC(=O)CSc2nc3sc(C)c(C)c3c(=O)n2C2CCCC2)no1 | inconclusive: 18.3 µM [inhibitor, single point] | 
CCOCC(=O)Nc1nnc(COCC)s1 | inconclusive: 35.5 µM [activator, single point] | 
C=CCn1c(N2CCN(c3ccc(OC)cc3)CC2)nc2c1c(=O)n(C)c(=O)n2C | inconclusive: 11.2 µM [inhibitor, partial curve, poor fit] | 
Cc1ccccc1OCCOC(=O)c1c(-c2ccccc2)noc1C | inconclusive: 8.91 µM [inhibitor, full curve, poor fit] | 
COc1ccc(Cn2c(C(=O)O)c(CNCc3cccs3)c3ccc(C)cc32)cc1 | inconclusive: 12.6 µM [inhibitor, partial curve, poor fit] | 
CCC(=O)c1ccc(OCCSc2ncccn2)cc1 | inconclusive: 35.5 µM [inhibitor, single point] | 
CC(C)CCNC(=O)NC(=O)COC(=O)/C=C/c1cc(Br)ccc1F |  | inactive: 8.31%
O=C(CCCN1C(=O)/C(=C/c2cccs2)SC1=S)Nc1cccnc1 | inconclusive: 11.2 µM [inhibitor, single point] | 

SMILES | Potency | activity change, negative = inhibition
COCCCNc1nc2c(c(=O)n(C)c(=O)n2C)n1Cc1cccc(OC)c1 |  | inactive: -24.2%
Cc1ccc(S(=O)(=O)N2CCC(N3CCC(C)CC3)CC2)cc1 | inconclusive: 0.0891 µM [inhibitor, full curve, poor fit] | 
COc1ccc(CNC(=O)COC(=O)c2ccc3c(c2)OCCO3)cc1 | inconclusive: 35.5 µM [inhibitor, single point] | 
O=C(Nc1cccc(Cl)c1N1CCCC1)c1cc2ccccc2o1 | inconclusive: 35.5 µM [inhibitor, single point] | 
Cc1nn(-c2ccc([N+](=O)[O-])cc2)c2c1C(c1cccc(Br)c1)N1C(=N2)C(=O)Nc2ccccc21 (centres undefined) | inconclusive: 2.82 µM [inhibitor, partial curve, poor fit] | 
CCOC(=O)c1cc(-c2ccncc2)nc2c1c(C)nn2C |  | inactive: -17.2%
CC(C)c1ccc(C(=O)N(c2ccccn2)C(C)c2ccco2)cc1 (centres undefined) | inconclusive: 3.66 µM [activator, full curve, poor fit] | 
Cc1cccc(/C=N\NC(=O)c2ccccc2-n2cccc2)c1 |  | inactive: -17.6%
O=C(Nc1ccc(OC(F)(F)F)cc1)c1cnccn1 |  | inactive: -26.3%
Cc1cc(NC(=O)CSc2nc(C(C)C)nc3sc4c(c23)CCCC4)no1 | inconclusive: 13 µM [inhibitor, partial curve] | 
COc1ccc(OC(=O)c2cccnc2)cc1 |  | inactive: -0.107%
COc1ccc(C(=O)N[C@H](C(=O)Nc2nc3c(s2)CCCC3)C(C)C)cc1 | inconclusive: 5.62 µM [activator, partial curve, poor fit] | 
CCOC(=O)c1sc(NC(=O)c2ccc(C)o2)nc1C | inconclusive: 10.3 µM [inhibitor, single point] | 
C/C(=N\NC(=O)C1(C)CC1(Br)Br)c1ccc(NC(=O)C2CCC2)cc1 (centres undefined) | inconclusive: 22.4 µM [inhibitor, single point] | 
Cc1ccc(S(=O)(=O)N[C@@H](CCCCN)C(=O)CCl)cc1 |  | inactive: -33.5%
CC(C)(CC(=O)O)CC(=O)Nc1ccccc1Oc1ccccc1 |  | inactive: -12.6% [at 46.1 µM]
Oc1c(C(c2ccc(Cl)cc2Cl)N2CCOCC2)sc2nc(-c3ccco3)nn12 (centres undefined) | inconclusive: 35.5 µM [inhibitor, single point] | 
O=C(NCc1ccc(F)cc1)c1ccc(CS(=O)(=O)c2ccc(Cl)cc2)o1 | inconclusive: 11.2 µM [inhibitor, partial curve, poor fit] | 
O=[N+]([O-])c1cccc(S(=O)(=O)Nc2cccc(-c3ccc(N4CCOCC4)nn3)c2)c1 | inconclusive: 2.82 µM [activator, partial curve, poor fit] | 
CCOC(=O)C(C)n1cnc2c(nnn2-c2ccc(C)cc2)c1=O (centres undefined) | inconclusive: 29.1 µM [activator, single point] | 
O=C(Nc1ccc(Cc2ccncc2)cc1)C1CCC(N2C(=O)C3C4C=CC(C4)C3C2=O)CC1 (centres undefined) | inconclusive: 1.03 µM [inhibitor, full curve, poor fit] | 
CCOC(=O)c1ccc(N2Cc3ccccc3C2)cc1O |  | inactive: 6.61%
CCCCCC(=O)Nc1ccc(-c2cn3cccnc3n2)cc1 | inconclusive: 15.8 µM [activator, partial curve, poor fit] | 

Ordered by number of heavy atoms (low to high): 3 of the compounds above.
SMILES | Potency | activity change, negative = inhibition
COc1ccc(OC(=O)c2cccnc2)cc1 |  | inactive: -0.107%
CCOC(=O)c1sc(NC(=O)c2ccc(C)o2)nc1C | inconclusive: 10.3 µM [inhibitor, single point] | 
CC(C)(CC(=O)O)CC(=O)Nc1ccccc1Oc1ccccc1 |  | inactive: -12.6% [at 46.1 µM]

2 of the compounds above, field by field.
Cc1ccc(S(=O)(=O)N2CCC(N3CCC(C)CC3)CC2)cc1
  Potency: inconclusive: 0.0891 µM [inhibitor, full curve, poor fit]
Cc1cccc(/C=N\NC(=O)c2ccccc2-n2cccc2)c1
  activity change, negative = inhibition: inactive: -17.6%

Quoted from the results shown for reference:
SMILES | Potency | activity change, negative = inhibition
Cc1cc(NC(=O)CSc2nc(C(C)C)nc3sc4c(c23)CCCC4)no1 | inconclusive: 13 µM [inhibitor, partial curve] | 
COc1ccc(OC(=O)c2cccnc2)cc1 |  | inactive: -0.107%

Additional compounds

SMILES | Potency | activity change, negative = inhibition
O=C(CN1C(=O)CN=C(c2ccccc2)c2ccccc21)NCc1ccco1 |  | inactive: 8.67%
COc1ccc2c(c1)c(CC(=O)Nc1nnc(C3CC3)s1)c(C)n2C(=O)c1ccc(Cl)cc1 | inconclusive: 3.55 µM [inhibitor, full curve] | 
Cc1cccc(/C=N/Nc2nncc3ccccc23)c1 | inconclusive: 7.94 µM [inhibitor, partial curve, poor fit] | 
CCN1CCc2c(sc(NC(=O)c3ccc(C(=O)c4ccccc4)cc3)c2C(N)=O)C1 | inconclusive: 35.5 µM [inhibitor, single point] | 
O=C(N/N=C/C(Br)=C/c1ccccc1)c1cccnc1 | inconclusive: 28.2 µM [inhibitor, single point] | 
O=C(CSc1nc2ccccc2s1)c1cc2ccccc2o1 |  | inactive: 6.99%
S=C(NN=C(C1CC1)C1CC1)Nc1ccccc1 | inconclusive: 5.17 µM [activator, partial curve] | 
CCOC(=O)c1c(/N=C/N(C)C)sc(/C=N/Nc2ccccc2)c1-c1ccc(Cl)cc1 |  | inactive: -3.15%
COC(=O)c1cn(C(=O)c2cc(Cl)ccc2Cl)c2ccccc12 |  | inactive: -7.8%
O=C(COc1ccc(F)cc1)Nc1ccccc1N1CCOCC1 |  | inactive: -2.85%
C#CCN1CC(COc2ccccc2)OCCS1(=O)=O (centres undefined) | inconclusive: 11.2 µM [inhibitor, single point] | 
CC(=O)Nc1ccc(Nc2nc(C)nc3c2oc2ccccc23)cc1 | inconclusive: 4.11 µM [inhibitor, partial curve] | 
N#CC(c1ccc(F)cc1)c1ccc(C(=O)c2ccccc2)cc1 (centres undefined) | inconclusive: 1.26 µM [activator, single point] | 
CCCCCCCCOC(=O)c1nc(Cl)c(Cl)c(N)c1Cl | inconclusive: 10 µM [activator, single point] | 
CCOc1ccc(S(=O)(=O)/N=C(/Nc2ccc(OC)cc2)c2ccccc2)cc1 | inconclusive: 35.5 µM [inhibitor, single point] | 
CC(=O)Nc1ccc(C(=O)N/N=C/c2ccccc2OC(=O)c2ccc(Cl)cc2)cc1 |  | inactive: -24.1%
N#Cc1ccccc1N/C=C/C(=O)c1ccc(Cl)cc1 | active: 12.6 µM | 
Cc1cc(Nc2cccc(Cl)c2)nc(-c2ccccc2O)n1 |  | inactive: 9.22% [at 46.1 µM]
CCCC(=O)NC(=S)c1c(C)n(C)n(-c2ccccc2)c1=O | inconclusive: 1 µM [inhibitor, partial curve, poor fit] | 
O=C(NCC(c1cccs1)N1CCOCC1)C1CCN(S(=O)(=O)c2c(Cl)cccc2Cl)CC1 (centres undefined) |  | inactive: -15.2%
CCCCN(C(=O)CSCC(=O)Nc1cccc(C)c1)c1c(N)n(CCCC)c(=O)[nH]c1=O |  | inactive: -13.2%
O=C(Nc1cc(S(=O)(=O)N2CCCCC2)ccc1N1CCOCC1)c1ccc(C(F)(F)F)cc1 | inconclusive: 0.0891 µM [inhibitor, full curve, poor fit] | 
CS(=O)(=O)NCC(c1ccco1)N1CCN(c2ccccc2)CC1 (centres undefined) |  | inactive: 7.1% [at 46.1 µM]
